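The test systems are human melanoma cell lines, treated with two drugs together for 72 h and then stained and imaged. The read-out is the fraction of cleaved-PARP-positive nuclei, in % of that fraction in the DMSO control; 200 means twice the control level of this apoptosis marker. Concentrations were fixed for each drug; these are the higher of two levels. These are primary screening values without error estimates. Basal and induced levels differ widely between cell lines.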 Only some of the drugs and lines screened are listed, without regard to their results. An entry leaves out what has no value listed here.

Compounds and concentrations:
SNS-032 (50 nM): CC(C)(C)c1cnc(CSc2cnc(NC(=O)C3CCNCC3)s2)o1
enzastaurin (4000 nM): Cn1cc(C2=C(c3cn(C4CCN(Cc5ccccn5)CC4)c4ccccc34)C(=O)NC2=O)c2ccccc21
NVP-BEZ235 (20 nM): Cn1c(=O)n(-c2ccc(C(C)(C)C#N)cc2)c2c3cc(-c4cnc5ccccc5c4)ccc3ncc21
embelin (6000 nM): CCCCCCCCCCCC1=C(O)C(=O)C=C(O)C1=O
OSI-906 (2000 nM): C[C@]1(O)C[C@@H](c2nc(-c3ccc4ccc(-c5ccccc5)nc4c3)c3c(N)nccn32)C1
temozolomide (10000 nM): Cn1nnc2c(C(N)=O)ncn2c1=O
TCS401 (8330 nM): O=C(O)C(=O)Nc1sc2c(c1C(=O)O)CCNC2
tanespimycin (10 nM): C=CCNC1=C2C[C@@H](C)C[C@H](OC)[C@H](O)[C@@H](C)/C=C(\C)[C@H](OC(N)=O)[C@@H](OC)/C=C\C=C(/C)C(=O)NC(=CC1=O)C2=O
tozasertib (30 nM): Cc1cc(Nc2cc(N3CCN(C)CC3)nc(Sc3ccc(NC(=O)C4CC4)cc3)n2)n[nH]1
PF-04217903 (5000 nM): OCCn1cc(-c2cnc3nnn(Cc4ccc5ncccc5c4)c3n2)cn1
KU-55933 (5000 nM): O=c1cc(-c2cccc3c2Sc2ccccc2S3)oc(N2CCOCC2)c1
crizotinib (1000 nM): C[C@@H](Oc1cc(-c2cnn(C3CCNCC3)c2)cnc1N)c1c(Cl)ccc(F)c1Cl
SNS-314 (4 nM): O=C(Nc1cccc(Cl)c1)Nc1ncc(CCNc2ncnc3ccsc23)s1
ruxolitinib (5000 nM): N#CC[C@H](C1CCCC1)n1cc(-c2ncnc3[nH]ccc23)cn1
SU6656 (2000 nM): CN(C)S(=O)(=O)c1ccc2c(c1)/C(=C/c1cc3c([nH]1)CCCC3)C(=O)N2
FH535 (5000 nM): Cc1cc([N+](=O)[O-])ccc1NS(=O)(=O)c1cc(Cl)ccc1Cl
GW9662 (10000 nM): O=C(Nc1ccccc1)c1cc([N+](=O)[O-])ccc1Cl
vorinostat (400 nM): O=C(CCCCCCC(=O)Nc1ccccc1)NO
gemcitabine (2 nM): Nc1ccn([C@@H]2O[C@H](CO)[C@@H](O)C2(F)F)c(=O)n1
dorsomorphin (2000 nM): c1cc(-c2cnn3cc(-c4ccc(OCCN5CCCCC5)cc4)cnc23)ccn1

- SNS-314 + embelin | RVH-421: 161; RPMI-7951: 127; WM115: 210; SK-MEL-28: 242; IST-MEL1: 160; MZ2-MEL: 213; UACC-257: 22.7; LB2518-MEL: 48.7
- tanespimycin + SU6656 | RVH-421: 112; RPMI-7951: 575; WM115: 1910; SK-MEL-28: 112; IST-MEL1: 163; MZ2-MEL: 194; UACC-257: 81.0; LB2518-MEL: 340
- PF-04217903 + crizotinib | RVH-421: 164; RPMI-7951: 219; WM115: 222; SK-MEL-28: 69.9; IST-MEL1: 42.0; MZ2-MEL: 162; UACC-257: 61.3; LB2518-MEL: 76.0
- KU-55933 + vorinostat | RVH-421: 48.1; RPMI-7951: 180; WM115: 102; SK-MEL-28: 307; IST-MEL1: 58.8; MZ2-MEL: 50.1; UACC-257: 32.8; LB2518-MEL: 158
- KU-55933 + SNS-032 | RVH-421: 90.7; RPMI-7951: 169; WM115: 214; SK-MEL-28: 77.4; IST-MEL1: 92.6; MZ2-MEL: 204; UACC-257: 70.3; LB2518-MEL: 75.3
- FH535 + tozasertib | RVH-421: 160; RPMI-7951: 141; WM115: 170; SK-MEL-28: 212; IST-MEL1: 81.5; UACC-257: 130
- gemcitabine + tanespimycin | RVH-421: 123; RPMI-7951: 218; WM115: 2350; SK-MEL-28: 88.4; IST-MEL1: 663; MZ2-MEL: 307; UACC-257: 35.7; LB2518-MEL: 156
- gemcitabine + OSI-906 | RVH-421: 24.2; RPMI-7951: 194; WM115: 63.4; SK-MEL-28: 93.1; IST-MEL1: 284; MZ2-MEL: 277; UACC-257: 76.6; LB2518-MEL: 110
- tozasertib + SNS-032 | RVH-421: 72.8; RPMI-7951: 99.3; WM115: 138; SK-MEL-28: 96.0; IST-MEL1: 114; MZ2-MEL: 401; UACC-257: 36.1; LB2518-MEL: 83.2
- tozasertib + temozolomide | RVH-421: 65.2; RPMI-7951: 88.8; WM115: 365; SK-MEL-28: 118; IST-MEL1: 107; MZ2-MEL: 463; UACC-257: 40.4; LB2518-MEL: 80.5
- ruxolitinib + vorinostat | RVH-421: 169; RPMI-7951: 221; WM115: 125; SK-MEL-28: 42.5; IST-MEL1: 120; MZ2-MEL: 155; UACC-257: 79.7; LB2518-MEL: 122
- TCS401 + tanespimycin | RVH-421: 94.6; RPMI-7951: 332; WM115: 2500; SK-MEL-28: 72.9; IST-MEL1: 74.0; MZ2-MEL: 148; UACC-257: 31.9; LB2518-MEL: 136
- OSI-906 + enzastaurin | RVH-421: 117; RPMI-7951: 363; WM115: 60.5; SK-MEL-28: 215; IST-MEL1: 234; MZ2-MEL: 73.4; UACC-257: 98.7; LB2518-MEL: 125
- GW9662 + NVP-BEZ235 | RVH-421: 36.7; RPMI-7951: 60.9; WM115: 70.0; SK-MEL-28: 125; IST-MEL1: 170; MZ2-MEL: 146; UACC-257: 88.0; LB2518-MEL: 57.3
- gemcitabine + crizotinib | RVH-421: 146; RPMI-7951: 228; WM115: 194; SK-MEL-28: 65.5; IST-MEL1: 251; MZ2-MEL: 124; UACC-257: 34.7; LB2518-MEL: 112
- dorsomorphin + vorinostat | RVH-421: 49.8; RPMI-7951: 105; WM115: 118; SK-MEL-28: 51.9; IST-MEL1: 238; MZ2-MEL: 144; UACC-257: 72.6; LB2518-MEL: 111
- SU6656 + dorsomorphin | RVH-421: 60.6; RPMI-7951: 166; WM115: 414; SK-MEL-28: 181; IST-MEL1: 77.1; MZ2-MEL: 131; UACC-257: 55.8; LB2518-MEL: 99.5
- enzastaurin + SNS-314 | RVH-421: 210; RPMI-7951: 211; WM115: 150; SK-MEL-28: 650; IST-MEL1: 67.9; MZ2-MEL: 380; UACC-257: 87.3; LB2518-MEL: 107
- SU6656 + TCS401 | RVH-421: 50.6; RPMI-7951: 109; WM115: 191; SK-MEL-28: 270; IST-MEL1: 48.6; MZ2-MEL: 126; UACC-257: 16.5; LB2518-MEL: 80.6
- tanespimycin + NVP-BEZ235 | RVH-421: 101; RPMI-7951: 71.6; WM115: 5060; SK-MEL-28: 191; IST-MEL1: 67.8; MZ2-MEL: 92.8; UACC-257: 49.1; LB2518-MEL: 48.2

Some entries from above, unchanged:

- GW9662 + NVP-BEZ235 | RVH-421: 36.7; RPMI-7951: 60.9; WM115: 70.0; SK-MEL-28: 125; IST-MEL1: 170; MZ2-MEL: 146; UACC-257: 88.0; LB2518-MEL: 57.3
- gemcitabine + tanespimycin | RVH-421: 123; RPMI-7951: 218; WM115: 2350; SK-MEL-28: 88.4; IST-MEL1: 663; MZ2-MEL: 307; UACC-257: 35.7; LB2518-MEL: 156

Data from the primary screen of doi:10.1371/journal.pone.0140310, rounded.